Results on two substances are retold here after publication PMC9143113.

Chains of the proteins cited; added tags and fusions are not shown. Lines headed by an entry give the natural chain unless they say otherwise; changes in a name come on top.
UniProt A5F9W9: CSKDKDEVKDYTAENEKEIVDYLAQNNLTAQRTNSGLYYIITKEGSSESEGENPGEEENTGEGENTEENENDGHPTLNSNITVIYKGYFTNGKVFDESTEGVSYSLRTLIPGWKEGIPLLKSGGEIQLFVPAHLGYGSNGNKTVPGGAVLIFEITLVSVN

These are yes or no findings as the source states them, for the method shown. In cells and extracts the contact can be indirect. These calls come from enrichment with a bait or labelling near it, and not all partners need be listed.

The target of this assay is sfGFP-CTD_(SprB (368 aa)) (Flavobacterium johnsoniae UW101) (UniProt A1E5U5). In words: affinity purification with mass spectrometry; co-immunoprecipitation with anti-GFP agarose (Chromotek) from lysates of the F. johnsoniae sfGFP-CTD SprB (368 aa) strain against the F. johnsoniae WT control; LC-MS/MS, MaxQuant LFQ and iBAQ.

For Fjoh_4997 (PPI) (from UniProt A5F9W9), the binding entry is reported as “binds”.
Next, “Fjoh_3466 (homolog of PorD) (from UniProt A5FE93)”: “binds”.
